A short description of this test: qHTS Assay for Lipid Storage Modulators in Drosophila S3 Cells.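 As to cell number change: cells counted by Cell Tracker Red CMTPX staining in the red channel.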 The note with it: BODIPY lipid droplet fluorescence, 18-24 h; for cell number change: measured here: cell count max response, cells fed with added oleic acid. In a few lines: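 Laser-scanning cytometry quantifies lipid droplet accumulation (500–530 nm total intensity; droplet/cell object ratio) in oleic acid-fed (400 uM added) Drosophila S3 cells treated with a concentration series. 20 uM Triacsin C defined 100% inhibition.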

Where [1] appears, read: measured here: lipid fluorescence (Fed channel) AC50, cells fed with added oleic acid.
[2] abbreviates: measured here: cell number channel AC50, cells fed with added oleic acid.

The other results are listed elsewhere or left out. Shown are side measurements of this screen, not its main read-out; they come without a call. Compounds called inactive in the main read-out are mostly missing here. Words in brackets tell the shape of the fitted curve; partial curves, single points and poor fits give uncertain potencies.

`CN(C)c1nc(SCC(=O)Nc2ccc(Cl)c(Cl)c2)nc(N2CCOCC2)n1`: the cell number change stood at 2.61%. The AC50 under setting [1] is 11.6 µM [falling, single point].

As to `O=C(CSc1nc2c(c(=O)[nH]1)CCC2)Nc1cccc(F)c1`, the cell number change was found to be 0.87%. The half-maximal activity concentration (AC50) under setting [1] is 6.51 µM [falling, single point].

Take `Cc1cccc(N2CCN(C(=O)CSCc3c(C)noc3C)CC2)c1C`: the cell number change was -2.76%.

Take `COc1cc(OC)cc(-c2nnc(NC(=O)CCS(=O)(=O)c3ccc(C)cc3)o2)c1`: the cell number change is -5.72%. Also, the AC50 under setting [2] was 0.00461 µM [falling, full curve, poor fit]. In addition, the concentration at half-maximal activity (AC50) under setting [1] was 0.0058 µM [falling, full curve, poor fit].

On to `O=C(COc1ccc(S(=O)(=O)N2CCCC2)cc1)NCc1ccccn1`, for which the cell number change was determined as 1.9%.

In the case of `Cc1ccc(NC(=O)c2ccc(C(=O)c3ccccc3)cc2)nc1`, the cell number change is -51.6%. In addition, the AC50 under setting [2] was 23.1 µM [falling, single point]. The AC50 under setting [1] is 23.1 µM [falling, single point].

Regarding `O=C(COC(=O)c1ccc(S(=O)(=O)N2CCCC2)cc1)Nc1ccc(F)cc1F`, the cell number change is -36.3%. Moreover, the AC50 under setting [2] is 18.4 µM [falling, single point].

Consider `CSc1ccc(Cn2nnc(C(=O)NCCc3ccc(Cl)cc3)c2N)cc1`, for which, under setting [1], the half-maximal activity concentration (AC50) is 1.84 µM [falling, partial curve].

As to `CCCN(CC(=O)Nc1cccc(S(N)(=O)=O)c1)CC(=O)Nc1ccc(F)c(F)c1F`, the cell number change was found to be 6.78%. The concentration at half-maximal activity (AC50) under setting [2] was 1.64 µM [rising, partial curve]. The concentration at half-maximal activity (AC50) under setting [1] was 29.1 µM [rising, single point].

Regarding `Nc1cc(Cl)ccc1C(=O)OCC(=O)N1CCCC1`, the cell number change was determined as 12.8%. Moreover, under setting [1], the AC50 is 9.2 µM [falling, partial curve, poor fit].

Take `NC(=O)c1ccc(Nc2ccc3c(c2)CCC3)c([N+](=O)[O-])c1`: the cell number change was -20.3%.

For `Cc1sc2nc(SCC(=O)NCc3ccco3)n(C)c(=O)c2c1C`, the cell number change was -36.9%. The half-maximal activity concentration (AC50) under setting [2] was 29.1 µM [falling, single point]. The AC50 under setting [1] was 29.1 µM [falling, single point].

Turning to `Cc1cccc(CNC(=O)C2CCC(=O)N(Cc3ccccc3F)C2)n1` (centres undefined), the cell number change is 5.25%.

For the compound `COc1ccc(C(CNC(=O)Cn2[nH]c(=O)c3ccccc3c2=O)N2CCCC2)cc1` (centres undefined), the cell number change was found to be 4.23%. Also, the AC50 under setting [1] was 0.517 µM [rising, single point].

On to `CCc1ccc(NC(=O)c2cc(S(=O)(=O)N3CCCC3)c[nH]2)cc1`, for which the cell number change worked out at 5.39%. Under setting [1], the AC50 is 6.51 µM [rising, single point].

With `C=CCNC(=S)NCCO`, the cell number change was -12.1%. Moreover, the half-maximal activity concentration (AC50) under setting [1] was 29.1 µM [falling, single point].

`CCn1cc(Cl)c(C(=O)NNC(=O)CCn2nc(C)c([N+](=O)[O-])c2C)n1`: the cell number change is -36.3%. In addition, the AC50 under setting [2] is 0.731 µM [rising, partial curve, poor fit]. For the same compound, the concentration at half-maximal activity (AC50) under setting [1] was 0.731 µM [rising, partial curve, poor fit].

Regarding `CCCCc1ccc(NC(=S)NCCc2ccc(S(N)(=O)=O)cc2)cc1`, the cell number change was -30.5%. Also, the half-maximal activity concentration (AC50) under setting [2] is 0.731 µM [falling, full curve, poor fit]. Moreover, under setting [1], the half-maximal activity concentration (AC50) is 0.82 µM [falling, full curve].

Take `O=C(NCc1ccccc1)/C(=C/c1cccc([N+](=O)[O-])c1)NC(=O)c1ccco1`: the cell number change is -8.57%.

For the compound `COCCCN1C(=O)c2ccc(C(=O)OCC(=O)NCc3cccc(OC)c3)cc2C1=O`, the cell number change is -2.2%.

On to `O=C(N/N=C/c1cn(-c2ccccc2)nc1-c1cc2ccccc2o1)c1c[nH]c2ccccc12`, for which the cell number change was -5.73%.

For `Cc1ccc(-c2cc(C(F)F)nc(N3CCOCC3)n2)cc1`, the cell number change is -30.1%. Besides, under setting [1], the concentration at half-maximal activity (AC50) was 1.3 µM [falling, partial curve].

As to `COc1cc(NC(=O)c2noc3c2CCCC3)c(OC)cc1Cl`, the cell number change was -17%. For the same compound, the AC50 under setting [1] is 4.61 µM [falling, single point].

Regarding `O=C(Oc1cccc(-n2cnnn2)c1)C1CCCCC1`, the cell number change was -3.76%. Also, the AC50 under setting [1] is 0.0184 µM [falling, full curve].

As to `CC(C)(C)c1ccccc1NC(=O)c1c(O)c2cccc3c2n(c1=O)CC3`, the cell number change came out at 9.74%. Also, the half-maximal activity concentration (AC50) under setting [2] was 4.11 µM [falling, single point]. In addition, the AC50 under setting [1] was 6.51 µM [falling, partial curve, poor fit].

For the compound `O=C(C1CCN(c2ncnc3c2sc2cccc(F)c23)CC1)N1CCOCC1`, the concentration at half-maximal activity (AC50) is 0.461 µM [rising, full curve] under setting [2] and 0.461 µM [rising, full curve] under setting [1].

In the case of `CCOC(=O)NC(=O)/C(C#N)=N\Nc1cccc(Cl)c1`, the cell number change was -27.5%. Further, the AC50 under setting [1] is 13 µM [falling, partial curve, poor fit].

In the case of `COC(=O)c1ccc(S(=O)(=O)N2CCN(C)CC2)n1C`, the cell number change is -43.9%. Moreover, under setting [2], the half-maximal activity concentration (AC50) was 4.61 µM [falling, full curve, poor fit].

Regarding `Cc1ccc(-c2nnc(SCC(=O)N/N=C/c3ccc(C)s3)n2-c2ccccc2)cc1`, the cell number change is 7.74%. The AC50 under setting [2] is 0.731 µM [falling, full curve, poor fit]. Besides, under setting [1], the half-maximal activity concentration (AC50) is 4.11 µM [falling, full curve].

On to `COc1ccc(CC(=O)N/N=C/c2c(C)n(C)c3ccccc23)cc1OC`, for which the cell number change stood at 25.6%. Further, under setting [2], the concentration at half-maximal activity (AC50) was 0.13 µM [rising, full curve, poor fit]. Also, the AC50 under setting [1] is 0.291 µM [rising, partial curve].

With `O=C(Nc1cccc(Cl)c1N1CCCCC1)c1ccc2c(c1)OCCO2`, the cell number change was -21.4%. Further, under setting [1], the AC50 is 0.058 µM [falling, full curve, poor fit].

Regarding `O=[N+]([O-])c1ccccc1S(=O)(=O)Nc1ccc(-c2ccc3nncn3n2)cc1`, the cell number change came out at 55%. Moreover, the AC50 under setting [2] is 18.4 µM [rising, single point].

As to `CC(Oc1ccc2c(-c3ccccc3)cc(=O)oc2c1)C(=O)O` (centres undefined), the cell number change was -38%. For the same compound, under setting [2], the AC50 was 4.11 µM [falling, full curve]. For the same compound, under setting [1], the AC50 was 2.91 µM [falling, full curve].

On to `Cc1ccc(/C=N/NC(=O)c2nnn(-c3nonc3N)c2CSc2ccc(Cl)cc2)o1`, for which the cell number change is -14.1%. Also, the half-maximal activity concentration (AC50) under setting [1] is 29.1 µM [rising, single point].

As for `COc1cc(NC(=O)C2CCN(S(=O)(=O)c3cccs3)CC2)cc(OC)c1`, the cell number change was -30.7%. Moreover, under setting [2], the half-maximal activity concentration (AC50) is 32.6 µM [falling, single point].

For the compound `CC1(C(=O)NC2CCCCC2)CCC(=O)N1Cc1cccs1` (centres undefined), the cell number change was -57.1%. For the same compound, the half-maximal activity concentration (AC50) under setting [1] is 32.6 µM [falling, partial curve].
